Results as given in PubChem BioAssay AID662 (National Center for Advancing Translational Sciences (NCATS), 2007).
The list shows a part of the results. The main result of the screen is listed elsewhere. These columns were measured beside it and carry no call. Compounds called inactive in the main read-out are mostly missing here. Words in brackets tell the shape of the fitted curve; partial curves, single points and poor fits give uncertain potencies.

Experiment: Cell signaling CRE-BLA (Fsk stim)
Settings: CHO CRE-bla reporter (cAMP response element driving beta-lactamase), forskolin EC10, beta-lactamase ratio; measured here: 460 nm blue channel
Summary of the method: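 The 460nm/530nm emission ratio after CCF4 loading defined %Activity, from which AC50 values were obtained. CRE-bla CHO cells received compound dilution series together with an EC10 level of NKH 477 for 3 hours at 37 degrees Celsius.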
In the case of `CC(=O)NC(Cc1ccccc1)C(=O)NC1CCN(C(=O)c2cnccn2)CC1` (configuration not stated), the AC50 is reported as 0.0126 µM [falling, full curve, poor fit].
With `Cc1ccccc1Cn1ccc(NC(=O)c2cc3nc(-c4ccco4)cc(C(F)(F)F)n3n2)n1` the AC50 was 3.98 µM [rising, partial curve].
For `COc1cccc(C2Nc3ccccc3C(=O)N2O)c1O` (configuration not stated), the AC50 was 15.8 µM [falling, partial curve].
For `CC(C)(C)n1nnnc1C(c1cccnc1)N1CCN(C2CCCCC2)CC1` (configuration not stated), the AC50 was 0.00794 µM [falling, full curve, poor fit].
For `C=CCOC(=O)C1=C(C)NC(SCC(=O)NC(=O)OCC)=C(C#N)C1c1cccnc1` (configuration not stated), the AC50 was 10 µM [rising, partial curve].
In the case of `COc1cc(C(=O)N2CCC(NC(=O)C(Cc3ccc(C)cc3)NC(C)=O)CC2)cc(OC)c1OC` (configuration not stated), the AC50 is reported as 0.126 µM [falling, single point].
For `COc1ccc(O)c(C(=O)c2cc(C#N)c(=O)n(-c3c(C)n(C)n(-c4ccccc4)c3=O)c2)c1`, the AC50 was 5.01 µM [falling, single point].
For `CSc1nc(N(CCO)CCO)c2sc3nc(-c4ccco4)c4c(c3c2n1)CCC4`, the AC50 was 12.6 µM [rising, partial curve].
For `CC(C)(C)c1nnc2sc(SCC(=O)N3CCCc4ccccc43)nn2c1=O`, the AC50 was 0.794 µM [falling, full curve].
With `COc1cccc(/C=N/n2c(C)c3c(C)nnc(C)c3c2C)c1O` the AC50 was 25.1 µM [falling, single point].
With `COC(=O)c1c(NC(=O)c2ccc(S(=O)(=O)N3CCOCC3)cc2)sc2c1CCN(C)C2` the AC50 was 10 µM [rising, partial curve].
In the case of `CCCCn1c(=NC(=O)c2cccnc2)c(C(=O)OCC)cc2c(=O)n3ccccc3nc21`, the AC50 is reported as 12.6 µM [rising, partial curve].
In the case of `COc1ccccc1CC(NC(C)=O)C(=O)NC1CCN(c2nnnn2-c2ccccc2)CC1` (configuration not stated), the AC50 is reported as 0.1 µM [falling, single point].
With `CC(=O)Nc1nc(C=C(Cl)Cl)cs1` the AC50 was 12.6 µM [falling, partial curve, poor fit].
For `C=CCn1cc(C(=O)NCCCOC)c(=O)c2cc(S(=O)(=O)N(CC)CC)ccc21`, the AC50 was 12.6 µM [rising, single point].
With `COc1ccccc1N1CCN(CC(O)c2ccc3cc[nH]c3c2)CC1` (configuration not stated) the AC50 was 10 µM [falling, partial curve].
In the case of `COc1cc(C2NC(=O)N(C)C3=C2C(=O)CCC3)cc(OC)c1OC` (configuration not stated), the AC50 is reported as 3.98 µM [rising, single point].
For `O=C(CN1C(=O)CCC1=O)Nc1ccc(S(=O)(=O)N2CCOCC2)cc1`, the AC50 was 0.501 µM [falling, full curve, poor fit].
For `Cc1nc(SCC(=O)NCc2ccco2)c2oc3ccccc3c2n1`, the AC50 was 7.94 µM [rising, partial curve].
For `Cc1c[nH]c(=O)n(CCCN2CCN(c3ccccc3OCC(F)(F)F)CC2)c1=O`, the AC50 was 0.0251 µM [rising, full curve, poor fit].
For `Cc1noc(C)c1-c1nc(NC2CCNCC2)c2ccccc2n1`, the AC50 was 10 µM [rising, partial curve].
With `O=C1CCc2cc(OCCCCc3nnnn3C3CCCCC3)ccc2N1` the AC50 was 0.1 µM [rising, full curve, poor fit].
With `Cc1ccc(C)c(NC(=O)CC(NCCCN2CCOCC2)C(=O)O)c1` (configuration not stated) the AC50 was 2 µM [rising, single point].
For `CCOc1cc(C2c3c(n[nH]c3C)C(=O)N2c2ccc(Br)cc2)ccc1O` (configuration not stated), the AC50 was 7.94 µM [falling, partial curve, poor fit].
With `O=C(Nc1ccc(S(=O)(=O)NC2CCCC2)cc1)c1cnccn1` the AC50 was 10 µM [rising, partial curve].
In the case of `CCOC(=O)c1c(N)nn(C(C)=O)c1-c1ccccc1`, the AC50 is reported as 12.6 µM [rising, partial curve].
For `Cc1nc2nc(-c3ccco3)nn2c(C)c1Cl`, the AC50 was 12.6 µM [rising, single point].
For `CCN1CCN(c2c(Cl)cccc2NC(=O)c2ccc(Br)o2)CC1`, the AC50 was 0.631 µM [rising, full curve, poor fit].
With `CCNc1ncc2nc(C)c(=O)n(C[C@H]3CCCO3)c2n1` the AC50 was 12.6 µM [rising, partial curve].
For `COc1cccc(-c2nn(C)c3sc(C(=O)N4CCN(c5ccccn5)CC4)cc23)c1`, the AC50 was 3.16 µM [rising, partial curve].
For `Cn1c(=O)c(-c2ccc(F)cc2)nc2cnc(Nc3ccccc3)nc21`, the AC50 was 1.58 µM [rising, full curve].
For `CSCCOC(=O)c1[nH]c2c(c1C)C(=O)CC(c1ccco1)C2` (configuration not stated), the AC50 was 10 µM [rising, partial curve].
For `CCn1c(=O)c(C(=O)NCc2ccc(OC)c(OC)c2)c(O)c2ccccc21`, the AC50 was 1.58 µM [rising, partial curve].
In the case of `O=C(NCc1ccc(Cl)cc1Cl)c1ccccn1`, the AC50 is reported as 0.398 µM [falling, full curve, poor fit].
For `Cc1nc2ccccc2c(=O)n1/N=C/c1cccnc1`, the AC50 was 20 µM [rising, single point].
With `Cc1cc(C)nc(N2CCCC(C(=O)NCCc3cccc(F)c3)C2)n1` (configuration not stated) the AC50 was 12.6 µM [falling, partial curve].
For `CCOCCCNC(=O)c1cccs1`, the AC50 was 0.631 µM [falling, single point].
For `CCOc1ccc(NS(=O)(=O)c2ccc3c(c2)CCN3C(=O)CCC(=O)O)cc1`, the AC50 was 0.158 µM [falling, full curve].
In the case of `N#Cc1cccc(-c2ccc3ncnc(NCc4ccccc4)c3c2)c1`, the AC50 is reported as 3.98 µM [rising, single point].
For `O=C(CCn1cnc2ccccc2c1=O)Nc1cccc(Cl)c1`, the AC50 was 20 µM [rising, partial curve, poor fit].
For `Cc1cc(C)n2c(=S)[nH]nc2n1`, the AC50 was 0.501 µM [falling, single point].
With `CCOC(=O)CC(=O)CSc1nc(C)nc2c1oc1ccccc12` the AC50 was 12.6 µM [rising, partial curve].
With `O=C(O)[C@H]1C[C@@H](CP(=O)(O)O)CCN1` the AC50 was 12.6 µM [falling, single point].
For `CCCn1c(=N)c(C(=O)NCc2ccc3c(c2)OCO3)cc2c(=O)n3cccc(C)c3nc21`, the AC50 was 20 µM [rising, single point].
For `CCCOc1ccc(-c2nc(C#N)c(N3CCN(C)CC3)o2)cc1`, the AC50 was 10 µM [rising, partial curve].
With `COc1ccc2c(CSc3nc4nc(C)cc(C)n4n3)cc(=O)oc2c1` the AC50 was 10 µM [rising, partial curve].
For `COc1cc(C(=O)NCc2nnc(SCC(=O)Nc3cc(C)cc(C)c3)o2)cc(OC)c1OC`, the AC50 was 25.1 µM [rising, single point].
For `Cc1cc(C)c2nc(N3CCCN(C(=O)c4cnccn4)CC3)c(C#N)cc2c1`, the AC50 was 12.6 µM [rising, partial curve].
With `Cc1cc(Nc2cc(F)ccc2C)n2ncnc2n1` the AC50 was 12.6 µM [rising, single point].
For `Cc1csc(NC(=O)c2sc3nc(-c4cccs4)ccc3c2N)n1`, the AC50 was 12.6 µM [rising, partial curve].
For `CCC(=O)N1CCc2cc(S(=O)(=O)N3CCc4ccccc43)ccc21`, the AC50 was 5.01 µM [rising, single point].
With `O=C(NC1CCCCC1)C1CCCN(S(=O)(=O)c2cccs2)C1` (configuration not stated) the AC50 was 0.0794 µM [falling, full curve].
With `N#CCC(=O)Nc1sc2c(c1C(N)=O)CCCC2` the AC50 was 12.6 µM [rising, partial curve].
For `COc1cccc(C2C3CN(C)CC=C3C(C#N)=C(N)C2(C#N)C#N)c1OC` (configuration not stated), the AC50 was 12.6 µM [rising, partial curve].
With `O=C(OCc1c(Cl)nc2sccn12)c1cc2c(s1)CCCC2` the AC50 was 0.794 µM [falling, partial curve].
In the case of `CCCOc1ccc2c(C)c(CC(=O)OC)c(=O)oc2c1`, the AC50 is reported as 2.51 µM [rising, partial curve, poor fit].
For `O=C(CN1C(=O)C2C3C=CC(C3)C2C1=O)N1CC=C(c2ccccc2)CC1` (configuration not stated), the AC50 was 0.00631 µM [falling, full curve].
With `O=C(O)CCc1ccc(-c2ccc(Cl)cc2)n1CC(=O)O` the AC50 was 2 µM [rising, partial curve].
With `CN(Cc1ccco1)c1cc(-c2ccc3c(c2)OCO3)ncn1` the AC50 was 3.16 µM [rising, full curve].
In the case of `Cc1ccc(CCNC(=O)CN2C(=O)COc3ccccc32)cc1`, the AC50 is reported as 0.00398 µM [falling, full curve, poor fit].
In the case of `O=C1c2ccccc2C(Nc2ccc3c(c2)OCCO3)N1Cc1ccc2c(c1)OCO2` (configuration not stated), the AC50 is reported as 25.1 µM [falling, single point].
In the case of `CCCS(=O)(=O)N1CCC(C(=O)NC2CCC(C)CC2)CC1` (configuration not stated), the AC50 is reported as 0.158 µM [falling, full curve].
For `O=c1c2c3nc4ccccc4nc3n(-c3cccc(F)c3)c2ncn1Cc1ccc2c(c1)OCO2`, the AC50 was 6.31 µM [rising, partial curve].
In the case of `CCn1nc(-c2ccccc2)c2nc3ccccc3nc21`, the AC50 is reported as 15.8 µM [rising, partial curve].
For `Cc1cc(NCCCN2CCOCC2)n2nc(C)c(-c3ccccc3)c2n1`, the AC50 was 0.0794 µM [falling, partial curve].
For `CN(C)c1ccc(-c2nc(NCc3cccnc3)c3ccccc3n2)cc1`, the AC50 was 10 µM [rising, partial curve].
In the case of `O=C(CCCCCN1C(=O)c2ccccc2C1=O)Nc1nccs1`, the AC50 is reported as 10 µM [rising, single point].
